From publication PMC9167300
These are yes or no findings as the source states them, for the method shown. In cells and extracts the contact can be indirect. Here binding means that the protein was enriched with, or labelled near, the bait; the list need not be complete.

Protein sequences, listed by entry. Tags and fused reporters are not part of them. Lines headed by an entry give the natural chain unless they say otherwise; changes in a name come on top. Residues count along the entry.
UniProt Q8R455, residues 980-1104: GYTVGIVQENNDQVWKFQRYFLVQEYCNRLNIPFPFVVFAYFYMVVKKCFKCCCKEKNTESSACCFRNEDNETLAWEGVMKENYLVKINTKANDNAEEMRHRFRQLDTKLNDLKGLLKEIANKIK
UniProt P63104: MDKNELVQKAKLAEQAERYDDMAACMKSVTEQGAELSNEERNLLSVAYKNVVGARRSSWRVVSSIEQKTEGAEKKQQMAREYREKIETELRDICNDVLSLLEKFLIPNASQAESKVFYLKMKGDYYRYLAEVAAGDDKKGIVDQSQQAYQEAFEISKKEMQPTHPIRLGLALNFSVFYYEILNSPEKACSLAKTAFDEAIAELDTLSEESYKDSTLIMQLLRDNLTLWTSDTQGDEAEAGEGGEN
UniProt P51451: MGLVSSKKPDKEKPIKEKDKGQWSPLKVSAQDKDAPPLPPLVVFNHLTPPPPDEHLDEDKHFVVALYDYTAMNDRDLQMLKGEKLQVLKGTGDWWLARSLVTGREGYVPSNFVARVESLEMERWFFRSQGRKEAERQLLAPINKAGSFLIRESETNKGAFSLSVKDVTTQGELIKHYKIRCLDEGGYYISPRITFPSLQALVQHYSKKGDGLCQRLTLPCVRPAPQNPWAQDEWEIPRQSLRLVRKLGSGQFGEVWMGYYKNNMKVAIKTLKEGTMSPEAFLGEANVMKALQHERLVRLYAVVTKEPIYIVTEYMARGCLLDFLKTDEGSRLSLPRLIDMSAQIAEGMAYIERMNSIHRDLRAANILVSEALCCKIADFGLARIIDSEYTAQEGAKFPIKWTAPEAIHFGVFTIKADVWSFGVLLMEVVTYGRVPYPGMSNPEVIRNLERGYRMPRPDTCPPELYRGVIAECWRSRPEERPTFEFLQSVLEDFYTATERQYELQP
UniProt P06239: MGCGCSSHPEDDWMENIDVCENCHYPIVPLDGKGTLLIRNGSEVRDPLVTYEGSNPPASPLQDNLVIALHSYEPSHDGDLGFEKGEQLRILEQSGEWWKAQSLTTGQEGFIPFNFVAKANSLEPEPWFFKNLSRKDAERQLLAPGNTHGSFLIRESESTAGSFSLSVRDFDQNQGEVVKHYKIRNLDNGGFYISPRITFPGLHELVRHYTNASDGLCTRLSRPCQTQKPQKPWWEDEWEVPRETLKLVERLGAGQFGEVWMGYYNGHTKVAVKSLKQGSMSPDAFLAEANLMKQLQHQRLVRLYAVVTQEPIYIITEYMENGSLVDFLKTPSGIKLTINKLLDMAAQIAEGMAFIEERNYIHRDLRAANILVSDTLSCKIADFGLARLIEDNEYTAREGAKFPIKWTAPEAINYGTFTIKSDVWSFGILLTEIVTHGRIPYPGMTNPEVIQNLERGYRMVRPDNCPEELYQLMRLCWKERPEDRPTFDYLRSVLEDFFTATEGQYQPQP

These substances were tested against GST-tagged C-terminus of TRPM8 (GST-M8C) (rat) (UniProt Q8R455) (assay: affinity purification with mass spectrometry; GST pull-down with the C-terminus of TRPM8 (M8C, 980-1104) combined with MS of ~60 kD and ~30 kD bands; the text also says Co-IP and MS assays in MCF7 cells; only the target purified).

| binding | Substance |
| --- | --- |
| binds | 14-3-3ζ, endogenous (from UniProt P63104 1-245) |
| binds | BLK, endogenous in MCF7 cells (from UniProt P51451 1-505) (enzyme) |
| binds | LCK, endogenous (from UniProt P06239 1-509) (enzyme) |
